These results are taken from patent publication US20230190951A1 (SYNAFFIX B.V., priority 2020, published 2023).

A short description of the data set: peptide synthesis. To be noted: conjugation step.
As to Arylazide-PEG11-LPETGG, the conjugation yield worked out at 59%. The figure for BCN-LPETGG is 72%; for BCN-PEG12-LPETGG it is 63%.

For BCN-PEG24-LPETGG, the conjugation yield amounted to 62%. Under Tetrazine-PEG3-LPETGG stands 91%.
